Some entries share one result that the patent states for a list of compounds.
Molecular target: T1, P2X7 receptors (Rattus norvegicus, UniProt Q64663)
T1 sequence (Q64663 1-595): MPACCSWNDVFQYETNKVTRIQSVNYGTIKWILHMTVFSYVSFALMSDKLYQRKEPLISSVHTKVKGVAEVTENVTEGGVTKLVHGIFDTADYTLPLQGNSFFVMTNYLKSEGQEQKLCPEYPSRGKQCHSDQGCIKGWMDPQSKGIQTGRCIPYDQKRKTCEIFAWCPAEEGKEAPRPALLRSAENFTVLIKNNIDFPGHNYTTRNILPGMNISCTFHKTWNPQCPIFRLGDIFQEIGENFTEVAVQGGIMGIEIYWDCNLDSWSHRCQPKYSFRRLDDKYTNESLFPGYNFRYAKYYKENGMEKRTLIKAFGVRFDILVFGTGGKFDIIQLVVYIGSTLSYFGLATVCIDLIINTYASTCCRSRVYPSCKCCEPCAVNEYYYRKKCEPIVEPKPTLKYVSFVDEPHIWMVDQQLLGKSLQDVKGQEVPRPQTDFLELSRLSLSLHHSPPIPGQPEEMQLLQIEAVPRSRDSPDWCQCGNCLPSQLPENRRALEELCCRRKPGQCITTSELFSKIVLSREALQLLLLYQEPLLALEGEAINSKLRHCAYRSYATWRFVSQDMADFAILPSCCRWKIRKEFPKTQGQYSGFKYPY
Test: Two-photon calcium imaging (fluo-4) of neurons in spinal cord slices
Conditions: 100 μM agonist; fifteen minutes after washout

BzATP
fluo-4 emission increase relative to baseline after washout: 200-300%

Source: patent publication US7923448B2, “Purine receptor inhibition as a therapeutic strategy in spinal cord and brain” (priority 2003, dated 2011)
